The list shows a part of the results.
B1: il10ra_site1_normal_mot_HHH_b1_06914_000000280_0001_1_18_H_._HHH_b1_05715_0001_0000300028_0000002_0 (protein)
chain: SSSSDVAHRLYELSRRAAELLANGNPEEAREVVEEAEELAEENNNPVLLFTIRHLLQSINSSSSS
B2: il10ra_site1_normal_mot_HHH_b1_06994_000000193_0001_40_55_H_._HHH_b2_07112_0001_0000100014_0000002_0 (protein)
chain: SSSSSQEEELVRAALELARQAYEAGDPEAARFLLEALLLALEKEGNEELVEEVRELLEELSSSSS
B3: il10ra_site1_sap_23_mot_HHH_b1_01939_000000180_0001_37_52_H_._HHH_b1_04531_0001_0000400025_0000001_0_0001 (protein)
chain: SSSSTQEVFRALEELIQALSEGDEERFEELLEEVRRLAEENNSWVFLWIIEMLERLFEEEHSSSS
B4: il10ra_site1_sap_27_mot_HHH_b1_01481_000000004_0001_1_20_H_._HHH_b2_02141_0001_0000300015_0000001_0_0001 (protein)
chain: SSSSDIEEVMRLIEEASELDQNGNKEEAEKLLEEAEKLAEELGNWALLFAIRHALRVVRNSSSSS
B5: il10ra_site1_sap_17_mot_HHH_b1_07380_000000129_0001_1_20_H_._HHH_b1_06890_0001_0000200026_0000001_0_0001 (protein)
chain: SSSSSEELERYVKLSLRFARWLYEAGDPEAARFVVEAALDTARRENNEELVEELEELLRQLSSSS
B6: il10ra_site1_sap_13_mot_HHH_b2_06664_af2_000000263_0001_19_36_H_._HHH_b1_07898_0001_0000100002_0000001_0_0001 (protein)
chain: SSSSDAEEVVELLFRAIELLYRGDKEEAEELVEEAKEIAEESNDPELQRYVEIAEHFVRAHSSSS
B7: il10ra_site1_normal_mot_HHH_b2_00800_af2_000000047_0001_1_20_H_._HHH_b1_06326_0001_0000400037_0000001_0 (protein)
chain: SSSSQEAYEASREAIEEALELYREGNPEEAREVLEELLELLRELGNENASATVEVLLRLLSSSSS
B8: il10ra_site1_sap_24_mot_HHH_b2_04050_000000291_0001_1_20_H_._HHH_b2_07950_af2_0001_0000400018_0000002_0_0001 (protein)
chain: SSSSSSQEALELSLEAFRAALRGDEERARELIEEAEELAQEEGDERLLKILEDLLKALSSSSSSS
B9: il10ra_site1_sap_18_mot_104c758fc23488854646035ccb2100c6_0001_000000282_0001_15_29_H_._2760df52dd5e0aaeaf25f6a5db4fc44c_0001_1_0001_0000200005_0000001_0_0001 (protein)
chain: SSSSSTQEVYEALERLAKLAHEGDEEEFKEVYEEARRLIEEEGNRLFQVQLEFLEELFNSSSSSS
B10: il10ra_site1_sap_23_mot_HHH_eva_0376_af2_000000153_0001_25_41_H_._HHH_b1_00695_0001_0000100002_0000001_0_0001 (protein)
chain: SSSSSDEEVEEEVERLLEEAKEIDDPRELSRLLQEAVRFAIQLQDAELLQKVWEVVHRLASSSSS
B11: il10ra_site1_sap_24_mot_HHH_b1_04771_000000013_0001_40_56_H_._HHH_b2_02918_af2_0001_0000100007_0000001_0_0001 (protein)
chain: SSSSDDEERVKQAIRFARWLLENGDKEAAKRIVEAAQDIARKGGNEELVQELEELEEEIKSSSSS
B12: il10ra_site1_normal_mot_HHH_b1_03859_af2_000000004_0001_44_57_H_._HHH_b2_07280_0001_0000300015_0000001_0 (protein)
chain: SSSSSSDEERYVKLALRFAKRIEDEEARRFILRAAEEIAKRANDEELLEEVEEVIRELSSSSSSS
B13: il10ra_site1_normal_mot_HHH_b1_05056_000000217_0001_1_20_H_._HHH_b2_02585_0001_0000100003_0000001_0 (protein)
chain: SSSSSDEEEREEVEELLEEAKRIEDRREVAELLQKATHLALRLQDPELLREVWRVVQEWASSSSS
B14: il10ra_site1_normal_mot_HHH_b2_07336_af2_000000224_0001_1_17_H_._HHH_b2_00864_0001_0000100004_0000001_0_af2pred_dldesign_0_af2pred (protein)
chain: SSSSADEVAELLREASRLLFEGELEKALELVEKARELAEAAGDPELIKAVDIVENAVLANSSSSS
B15: il10ra_site1_sap_16_mot_39a7b8d0c4c3fc04bafbda6ce6101d3a_0001_1_af2_000000014_0001_34_48_H_._HHH_b1_05621_0001_0000900026_0000001_0_0001 (protein)
chain: SSSSDEEEERIEELLEEAERLIEEGNPEEALEILLEATRLALKLGNEELLQRVWELIKRLESSSS
B16: il10ra_site1_normal_mot_HHH_b1_07527_000000076_0001_1_15_H_._HHH_b2_06947_af2_0001_0000400043_0000001_0 (protein)
chain: SSSSNAADEVYELIREAMELLRNGNPEEAKEVLEEAERLAEENNNILLLWQIEFALREIDSSSSS
B17: il10ra_site1_sap_28_mot_HHH_b2_08004_000000101_0001_1_17_H_._HHH_b1_04916_af2_0001_0000100001_0000001_0_0001_af2pred_0001 (protein)
chain: SSSSTAVEEVLRAIERVLELLHRGDEEEAEKLAEEALEIAREAGNLNLRALLEAMLRRARSSSSS
B18: il10ra_site1_sap_13_mot_HHH_b2_08287_af2_000000247_0001_1_16_H_._HHH_b2_05895_af2_0001_0000500020_0000002_0_0001 (protein)
chain: SSSSSEDERYLELSEMFARRLYENGDPEAARAILKAAIEIARKANDEETLERLEELLEEIGSSSS
B19: il10ra_site1_sap_21_mot_HHH_b1_05185_000000011_0001_22_39_H_._HHH_b1_07240_0001_0000600038_0000002_0_0001 (protein)
chain: SSSSSEELRRIMELIRRAAELDQNGNPEEARKLLEEAEELAEEAGNWAALFAVRHLLRIVNSSSS
B20: il10ra_site1_normal_mot_HHH_b2_02337_000000026_0001_38_52_H_._HHH_b2_05302_0001_0000300029_0000001_0 (protein)
chain: SSSSSDEEELREEVEELLEEARKIPDHREVAELLQRATHFALELGDQELLQEVWRVVRELSSSSS
B21: il10ra_site1_normal_mot_HHH_b2_04912_000000028_0001_1_20_H_._HHH_b2_04788_af2_0001_0000300025_0000001_0 (protein)
chain: SSSSDLSQRALELSKEAVRLALRGNPEEAEELLEEALKLAEEGGNEQLARVIEELLKALEISSSS
B22: il10ra_site1_sap_23_mot_1d093d8facd031590e769bfa2e47527f_0001_000000108_0001_1_11_H_._2421ffacfce1bf9a432afec7a76aa6a2_0001_0001_0000300007_0000001_0_0001 (protein)
chain: SSSSSEDEELLRAALRLAEQLLEHGDPKAARFILEAAILVAEELGDEETLEELQKLLEEVRSSSS
B23: il10ra_site1_normal_mot_HHH_b2_03438_af2_000000049_0001_18_34_H_._HHH_b2_02820_0001_0000300012_0000001_0_af2pred_0001 (protein)
chain: SSSSDEEERRSEELRQRVEEAEEEGDIHLVVRLLRELLEAAKELNDPELLKFIHEVIRSLSSSSS
B24: il10ra_site1_normal_mot_HHH_b1_08477_000000091_0001_40_57_H_._ems_p1-16H-GBL-16H-GABBL-16H_0045_0001_0001_0002_0001_0000200005_0000001_0_af2pred_0001 (protein)
chain: SSSSSRVELAAKVARRAAEEAGDEEAREKVEEVEEALERGEISEEEALELLAKISREIAESSSSS

The binders below were run against il10ra, Q13651 (assay: yeast display titration).

Binder | apparent Kd
B1 | inactive: no binding seen
B2 | inactive: no binding seen
B3 | inactive: no binding seen
B4 | inactive: no binding seen
B5 | inactive: no binding seen
B6 | inactive: no binding seen
B7 | inactive: no binding seen
B8 | inactive: no binding seen
B9 | inactive: no binding seen
B10 | inactive: no binding seen
B11 | inactive: no binding seen
B12 | inactive: no binding seen
B13 | inactive: no binding seen
B14 | inactive: no binding seen
B15 | inactive: no binding seen
B16 | inactive: no binding seen
B17 | inactive: no binding seen
B18 | inactive: no binding seen
B19 | inactive: no binding seen
B20 | inactive: no binding seen
B21 | inactive: no binding seen
B22 | inactive: no binding seen
B23 | inactive: no binding seen
B24 | inactive: no binding seen

Exported as comma-separated lines: entries from further up.
Binder,apparent Kd
B1,inactive: no binding seen
B7,inactive: no binding seen

Reference: paper PMC10163288
